Results reported in publication PMC7188823, “The BRCA2-MEILB2-BRME1 complex governs meiotic recombination and impairs the mitotic BRCA2-RAD51 function in cancer cells” (Nature Communications, 2020).
No constants are given. Whether binding was seen depends on the method and setting. In cells and extracts the contact can be indirect. Here binding means that the protein was enriched with, or labelled near, the bait; the list need not be complete.

Target: BRME1 (endogenous, mouse testis) (mouse (endogenous in testis))
Test: affinity purification with mass spectrometry; IP with the BRME1 antibody on Dynabeads protein A from mouse testis extract against control IgG; wash with 400 mM KCl buffer; semi-quantitative mass spectrometry

B1: MEILB2 (endogenous, mouse testis) (protein, UniProt Q9D4G2 1-338)
chain: MAATVGDGSGTEEACRNMESKEEFVKVRKKDLERLTTEVMQIRDFLPRILNGELLESFQKLKMVEKNLERKEQELEQLIMDREHFKARLETAQADSGREKKEKLALRQQLNEAKQQLLQQAEYCTQMGAVTCTLLWGVSSSEEVVKTILGGDKALKFFNITGQTMESFVKSLDGDVKEVDSDENQFVFALAGIVTNVAAIACGREFLVNSSRVLLDTMLQLLGDLKPGQCTKLKVLMLMSLYNVSINSKGLKYITESPGFIPLLWWLLSDPDAEVCLHTLRLIQSVVLEPDVFSKVASELQSSLPLQRILAMSKSRNSHLQSAAQELLEDLRALDCNV
B1 was tested, and the binding was “binds”.
